# Laboratory results taken from PubChem BioAssay AID624415 (National Center for Advancing Translational Sciences (NCATS), 2012).
# By UniProt entry, the sequences of proteins in these tests, tags left out.
# UniProt Q9GZU1, whole entry, looked up: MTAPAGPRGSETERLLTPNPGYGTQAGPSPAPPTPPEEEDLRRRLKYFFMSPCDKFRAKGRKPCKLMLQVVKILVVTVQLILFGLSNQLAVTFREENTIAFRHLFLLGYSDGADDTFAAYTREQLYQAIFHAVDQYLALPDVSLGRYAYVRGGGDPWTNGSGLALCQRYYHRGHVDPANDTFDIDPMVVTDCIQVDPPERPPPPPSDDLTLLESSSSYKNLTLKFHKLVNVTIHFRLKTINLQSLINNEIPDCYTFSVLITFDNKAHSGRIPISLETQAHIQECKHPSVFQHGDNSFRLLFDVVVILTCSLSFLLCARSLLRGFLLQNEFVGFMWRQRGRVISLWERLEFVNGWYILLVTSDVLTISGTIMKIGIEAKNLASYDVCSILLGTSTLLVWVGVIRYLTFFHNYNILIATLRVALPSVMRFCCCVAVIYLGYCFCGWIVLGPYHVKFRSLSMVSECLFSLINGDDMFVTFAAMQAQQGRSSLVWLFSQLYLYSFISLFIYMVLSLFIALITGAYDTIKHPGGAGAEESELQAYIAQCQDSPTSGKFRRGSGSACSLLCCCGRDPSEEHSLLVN
# Among all 390,000 compounds or so, about 60 (0.02%) were called active. This list was built around the results that the source calls inconclusive (neither active nor inactive); the mix of calls is not that of the screen. Rule as the data show it: active = activity change below about -50%; inconclusive = between about -30% and that limit; inactive = weaker than that.
# Molecular target: Mucolipin-1 (Homo sapiens) (UniProt Q9GZU1)
# Test: qHTS for Inhibitors of the Human Mucolipin Transient Receptor Potential 1 (TRPML1);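 also: stimulus is agonist 54-4 at its EC80 concentration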
# Details: TRPML1-inducible cells, Ca2+ dye fluorescence, FDSS; stronger effect = lower value; inhibition of EC80 agonist-evoked calcium signal
# Outline: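 TRPML1-DL cells, Tet-induced overnight (~16 h, 37 °C) at 1,500 cells/well, were loaded with Ca8 no-wash dye plus quencher for 45-90 min at room temperature. Compounds were pinned during FDSS kinetic reading; agonist 54-4 at EC80 (4 uM final) then added.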
# % is scaled to controls: 0 for no effect and ±100 for the full control effect.
row,SMILES,"activity change, negative = inhibition"
1,O=[N+]([O-])c1cccc(CN2CCCCCC2)c1,inactive: 15.5%
2,Cc1cccc(CN2CCN(CC(=O)Nc3c(C)cccc3C)S2(=O)=O)c1,inactive: 2.13%
3,CCCn1c(N)c(C(=O)CSc2nncs2)c(=O)[nH]c1=O,inactive: 10.4%
4,CC(C)Oc1cccc(C(=O)C2CCCN(Cc3cccn3-c3ccccn3)C2)c1 (stereo unspecified),inactive: 1.17%
5,Cc1nc(C)c(C(=O)OCC(=O)Nc2ccc(C)c(C)c2)s1,inconclusive: -34.6%
6,Cc1nc2ccc(NC(=O)Cc3c(F)cccc3Cl)cc2s1,inconclusive: -31.5%
7,Cc1ccc(NC(=O)c2cc(S(=O)(=O)N3CCCC3)cn2C)cc1C,inactive: 6.04%
8,COc1ccccc1NC(=O)CCSc1nnnn1C,inconclusive: -34.1%
9,O=S(=O)(c1cc(Cl)ccc1Cl)N1CCN(c2ccccn2)CC1,inconclusive: -32.2%
10,Cc1csc(N(C(=O)c2cccc(S(=O)(=O)N(C)C)c2)c2ccccc2)n1,inconclusive: -33.6%
11,CCOC(=O)c1ccc2c(c1)sc(=NC(=O)c1ccco1)n2CCOC,inconclusive: -30.3%
12,Cn1cc(/C=N/n2cnc3scc(-c4ccccc4)c3c2=O)c2ccccc21,inactive: -4.45%
13,O=C(NCc1ccccc1)c1cccc(S(=O)(=O)N2CCCCC2)c1,inconclusive: -32.5%
14,CCn1nc(-c2ccccc2)c(-c2ccccc2)c(C(=O)OCCOC)c1=O,inconclusive: -39.7%
15,N#C/C(=C/c1ccc(N2CCOCC2)o1)C(=O)Nc1ccccc1,inactive: -17%
16,Oc1[nH]c2ccccc2c1C=NCC1CCCO1 (stereo unspecified),inconclusive: -31.9%
17,CCOc1ccc(N=Nc2ccc(O)c3ncccc23)cc1,inconclusive: -35.2%
18,COc1ccc(-n2nc3c(N4CCC(C(=O)NCc5cccc(C)c5)CC4)nnc(C)c3c2C)cc1,inconclusive: -39.1%
19,COc1ccc(C(C)=O)cc1CN1CCCCC1,inconclusive: -35%

row,SMILES,"activity change, negative = inhibition"
1,CSc1ccccc1NC(=O)CN(C)Cc1c(O)ccc2ccccc12,inconclusive: -41.8%
2,CCC(C)NC(=O)c1sc2nc(C)c(C(=O)Nc3ccc(Cl)cc3)c(-c3ccc(Br)cc3)c2c1N (stereo unspecified),inconclusive: -38.4%
3,CCOC(=O)c1sc2ccccc2c1OC(=O)c1ccccc1,inactive: 10.4%
4,Cn1nc(C(F)(F)F)c(-c2ccccc2)c1NC(=O)c1nccnc1C(=O)O,inconclusive: -33.4%
5,CCC(CO)Oc1cc(NC(=O)c2ccc(OC)cc2)c2ncn(C(C)C)c2c1 (stereo unspecified),active: -57.4%
6,Cc1ccc(OCCC(=O)Nc2ccc(S(=O)(=O)Nc3nccs3)cc2)cc1,inconclusive: -37%
7,COc1ccc(C(=O)Nc2ccc(S(=O)(=O)Nc3ncccn3)cc2)cc1OC,inconclusive: -43.7%
8,COc1ccc(NC(=O)c2ccc(COc3ccccc3)o2)c(OC)c1,inconclusive: -34.9%
9,CCOC(=O)C1CCN(CCC(=O)Nc2ccc(C)cc2)CC1,inconclusive: -34.7%
10,CCOC(=O)N1CCN(c2cc3nccnc3cc2F)CC1,inconclusive: -36.7%
11,Cc1ccc(O)c(NC(=S)NC(=O)CC(C)C)c1,inconclusive: -37.4%
12,CC(C)c1ccc(NC(=O)N2CCN(c3ccc(Cl)c(Cl)c3)CC2)cc1,inconclusive: -32.4%
13,CC(C)(C)OC(=O)N1CCC(c2c(C(=O)NCc3ccccc3)cnn2-c2ccc(F)cc2)CC1,inconclusive: -40.7%
14,Cc1cc(C(=O)NC(C)c2ccncc2)cs1 (stereo unspecified),inconclusive: -31.5%
15,CCOC(=O)N1CCN(CCC(=O)c2ccc(Br)cc2)CC1,inconclusive: -31.5%
16,C/C=C(\C)C(=O)NCCN1C2=NC[C@@H](Cc3ccccc3)N2C[C@H]1Cc1ccc(O)cc1,inconclusive: -33.1%
17,CCOc1ccc(C2C(C(=O)c3ccc(C)o3)=C(O)C(=O)N2CCN2CCOCC2)cc1OC (stereo unspecified),inconclusive: -31.5%
18,C#CCCOC(=O)N1C2=NC(C(=O)OC)=C(C(=O)OC)[C@@H]3N(C)c4ccccc4[C@]23C[C@H]1CO,inconclusive: -36.6%
19,COc1ccc(-c2noc(-c3ccccc3F)n2)cc1,inconclusive: -30.6%

# By substructure: the entries above containing bromine (two)
row,SMILES,"activity change, negative = inhibition"
2,CCC(C)NC(=O)c1sc2nc(C)c(C(=O)Nc3ccc(Cl)cc3)c(-c3ccc(Br)cc3)c2c1N (stereo unspecified),inconclusive: -38.4%
15,CCOC(=O)N1CCN(CCC(=O)c2ccc(Br)cc2)CC1,inconclusive: -31.5%

# Continued.

row,SMILES,"activity change, negative = inhibition"
1,CCOc1ccc(NC2=CC(=O)CCC2)cc1,inconclusive: -33.8%
2,Cc1nn(CCO)c2c1C(=O)CCC2,inconclusive: -39.4%
3,CCCS(=O)(=O)c1c(S(=O)(=O)CCC)c2cc(C(C)(C)C)ccn2c1C(=O)c1ccccc1,inactive: 22.8%
4,COc1cc2c(cc1OC)C(C(=O)Nc1ccccn1)C(c1cccnc1)N(C)C2=O (stereo unspecified),active: -52.4%
5,CC(C)[C@H](NC(=O)c1ccc(F)cc1)C(=O)OCC(=O)NC(=O)c1cccn1C,inconclusive: -31.1%
6,FC(F)(F)Oc1ccc2c(c1)NC(c1ccncc1)=NC(c1cccs1)=N2,inconclusive: -34.6%
7,O=C(COc1ccc(Cl)cc1)Nc1ccc(C(=O)OCc2cc(=O)n3ccsc3n2)cc1,inactive: -1.57%
8,O=[N+]([O-])c1cccc(S(=O)(=O)c2ccc(NCCOCCO)c([N+](=O)[O-])c2)c1,inactive: -0.475%
9,Cc1cccc(N2C(=O)CS(=O)(=O)C23C(=O)N(Cc2c(F)cccc2Cl)c2ccccc23)c1 (stereo unspecified),inactive: 11.6%
10,Cc1ccc(C(=O)CCC(=O)OCC(=O)Nc2ccccc2SCC#N)cc1,inactive: -8.4%
11,COc1ccccc1-c1nnc(SCC(=O)NC2CCS(=O)(=O)C2)n1N (stereo unspecified),inconclusive: -30%
12,OC(COC(c1ccc(Cl)cc1)c1ccc(Cl)cc1)CN1CCCC1 (stereo unspecified),inactive: -1.45%
13,Cc1cc(C)c(S(=O)(=O)c2cccc(Cl)c2)c(=O)[nH]1,inconclusive: -34.7%
14,CC(=O)Nc1cc2nc(C)n(Cc3ccc([N+](=O)[O-])cc3)c2nc1C,inactive: -12.9%
15,CC1(C)N=C(/C=N/O)C=[N+]1[O-],inconclusive: -37%
16,O=C(NCCN1CCN(c2ccccc2F)CC1)C1CCCN(S(=O)(=O)c2cnc[nH]2)C1 (stereo unspecified),inactive: -7.08%
17,COc1ccc(S(=O)(=O)Nc2ccc(-c3cn4ccsc4n3)cc2)cc1C,inconclusive: -38%
18,CCN(CC)S(=O)(=O)c1cc(NC(=O)COC(=O)c2c(C)noc2C)ccc1C,inconclusive: -30.8%
